Test results: paper PMC4021073, “Breast tumor specific mutation in GATA3 affects physiological mechanisms regulating transcription factor turnover”
Construct, isoform or probe ends are uncertain for at least one entry. A weaker result is weaker than the reference pair of the same experiment.

Test system: GATA3 DBD mutant D336fs
Assay: EMSA
Conditions: 0.25-2 uM protein, 30 uM DNA, binds only at high protein; 28 mM Tris-HCl pH 7.5, 120 mM NaCl, 1 mM DTT, 0.8 mM 2-mercaptoethanol, 4% glycerol, 0.4 uM zinc sulfate; 10 min at 37 C; 10 ul; recombinant protein; label: none (ethidium bromide stain)

“AATGTCCATCTGATAAGACG (double strand) [GATA+ 20 bp]”: binds more weakly.
